In patent US20260265249A1, “PHARMACEUTICALLY ACCEPTABLE SALT AND CRYSTAL FORM OF 1,4-DIHYDRO-1,6-NAPHTHYRIDINE AMIDE COMPOUND AND PREPARATION METHOD THEREFOR” (JIANGSU HENGRUI PHARMACEUTICALS CO., LTD., priority 2023, published 2026):
The structures given here were assigned with low confidence; some may be wrong.

Amino acid sequences for entries named in this document (tags omitted).
UniProt P08235, whole entry: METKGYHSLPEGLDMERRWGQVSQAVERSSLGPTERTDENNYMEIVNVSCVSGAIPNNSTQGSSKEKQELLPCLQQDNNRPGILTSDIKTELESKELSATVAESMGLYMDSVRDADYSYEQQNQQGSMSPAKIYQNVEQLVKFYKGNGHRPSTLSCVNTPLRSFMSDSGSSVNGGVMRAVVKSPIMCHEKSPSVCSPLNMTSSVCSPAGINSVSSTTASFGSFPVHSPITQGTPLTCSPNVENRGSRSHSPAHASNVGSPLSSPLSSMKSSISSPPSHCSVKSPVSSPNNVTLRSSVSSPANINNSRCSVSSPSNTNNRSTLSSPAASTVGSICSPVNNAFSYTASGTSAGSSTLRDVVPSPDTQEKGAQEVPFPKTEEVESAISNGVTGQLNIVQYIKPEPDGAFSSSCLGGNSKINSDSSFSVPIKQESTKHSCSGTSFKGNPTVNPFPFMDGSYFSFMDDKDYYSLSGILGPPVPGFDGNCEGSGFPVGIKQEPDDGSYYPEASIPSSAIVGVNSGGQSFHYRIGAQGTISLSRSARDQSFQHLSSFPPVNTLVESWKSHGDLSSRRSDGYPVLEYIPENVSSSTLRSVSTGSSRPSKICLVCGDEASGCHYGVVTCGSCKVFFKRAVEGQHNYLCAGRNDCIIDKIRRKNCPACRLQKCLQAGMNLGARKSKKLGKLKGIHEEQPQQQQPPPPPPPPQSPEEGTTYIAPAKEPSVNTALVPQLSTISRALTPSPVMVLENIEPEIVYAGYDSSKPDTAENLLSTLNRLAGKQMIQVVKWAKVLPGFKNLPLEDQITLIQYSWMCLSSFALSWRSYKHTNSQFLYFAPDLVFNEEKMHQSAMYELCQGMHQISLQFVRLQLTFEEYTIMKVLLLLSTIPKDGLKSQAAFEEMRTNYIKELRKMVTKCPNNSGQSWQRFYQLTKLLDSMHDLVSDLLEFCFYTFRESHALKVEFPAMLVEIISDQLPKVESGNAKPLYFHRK

Biological target: mineralocorticoid receptors (Homo sapiens, UniProt P08235)
Experiment: In-vitro antagonistic activity against mineralocorticoid receptors (luciferase reporter, transfected HEK293T cells, 1 nM aldosterone)
Conditions: luciferase readout

Work on `[2H]C([2H])([2H])Oc1cc(C#N)ccc1[C@@H]1C(C(N)=O)=C(C)Nc2c(C)cnc(OCC)c21` yielded an IC50 of 7 nM.
